From patent US20230093155A1 come the findings set out here.

Protein sequences, listed by entry. Tags and fused reporters are not part of them. Lines headed by an entry give the natural chain unless they say otherwise; changes in a name come on top.
UniProt Q13261: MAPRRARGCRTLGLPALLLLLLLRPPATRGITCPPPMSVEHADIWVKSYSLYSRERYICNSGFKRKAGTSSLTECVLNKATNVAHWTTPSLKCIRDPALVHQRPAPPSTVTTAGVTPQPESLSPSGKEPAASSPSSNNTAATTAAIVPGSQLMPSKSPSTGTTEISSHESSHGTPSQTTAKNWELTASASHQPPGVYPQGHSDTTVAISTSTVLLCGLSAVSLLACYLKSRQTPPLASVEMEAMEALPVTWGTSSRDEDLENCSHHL

No constants are given. Whether binding was seen depends on the method and setting. In cells and extracts the contact can be indirect. Some entries that bind do so weakly or less than the wild type.

The target of this experiment is Fc-fused IL-15 (S58D) of P-0315 after MMP-2 cleavage. Nature of the experiment: co-purification on Protein A after MMP-2 digestion of P-0315, SDS-PAGE.

For “IL-15RαSushi+ domain released from P-0315 by MMP-2 cleavage (from UniProt Q13261 31-107) (receptor)”, the binding result is listed as “binds”.
